Some of the results follow.
How the values were obtained:
Assay in all cases: log2 fold change, soluble protein after heating vs DMSO (PISA); higher = thermal stabilisation; K562 cells, 10 uM, 30 min; active = over 0.2 and 3.5 SD of the protein, either way, in both replicates (recomputed)
saracatinib = compound: CN1CCN(CCOc2cc(OC3CCOCC3)c3c(Nc4c(Cl)ccc5c4OCO5)ncnc3c2)CC1 [saracatinib]
Summary of the method: (§1)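 K562 cells at 2×10^6 cells/mL were treated with 10 μM compound for 30 min. Aliquots were heated for 3 min across 48°C-58°C, pooled, and extracted in PBS with 0.5% NP-40 at 4°C; soluble protein was the supernatant after 21,000xg for 90 min. Soluble protein was quantified by TMTpro 16plex LC-MS/MS with channel sums equalised, and reported as log2 fold change in thermal stability against DMSO controls, with values from duplicates.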

Sequences of proteins named here, by UniProt entry; tags and fusion partners are left off. A change or cut given only in a name is not applied to a line headed by its entry.
UniProt Q6ZNB6: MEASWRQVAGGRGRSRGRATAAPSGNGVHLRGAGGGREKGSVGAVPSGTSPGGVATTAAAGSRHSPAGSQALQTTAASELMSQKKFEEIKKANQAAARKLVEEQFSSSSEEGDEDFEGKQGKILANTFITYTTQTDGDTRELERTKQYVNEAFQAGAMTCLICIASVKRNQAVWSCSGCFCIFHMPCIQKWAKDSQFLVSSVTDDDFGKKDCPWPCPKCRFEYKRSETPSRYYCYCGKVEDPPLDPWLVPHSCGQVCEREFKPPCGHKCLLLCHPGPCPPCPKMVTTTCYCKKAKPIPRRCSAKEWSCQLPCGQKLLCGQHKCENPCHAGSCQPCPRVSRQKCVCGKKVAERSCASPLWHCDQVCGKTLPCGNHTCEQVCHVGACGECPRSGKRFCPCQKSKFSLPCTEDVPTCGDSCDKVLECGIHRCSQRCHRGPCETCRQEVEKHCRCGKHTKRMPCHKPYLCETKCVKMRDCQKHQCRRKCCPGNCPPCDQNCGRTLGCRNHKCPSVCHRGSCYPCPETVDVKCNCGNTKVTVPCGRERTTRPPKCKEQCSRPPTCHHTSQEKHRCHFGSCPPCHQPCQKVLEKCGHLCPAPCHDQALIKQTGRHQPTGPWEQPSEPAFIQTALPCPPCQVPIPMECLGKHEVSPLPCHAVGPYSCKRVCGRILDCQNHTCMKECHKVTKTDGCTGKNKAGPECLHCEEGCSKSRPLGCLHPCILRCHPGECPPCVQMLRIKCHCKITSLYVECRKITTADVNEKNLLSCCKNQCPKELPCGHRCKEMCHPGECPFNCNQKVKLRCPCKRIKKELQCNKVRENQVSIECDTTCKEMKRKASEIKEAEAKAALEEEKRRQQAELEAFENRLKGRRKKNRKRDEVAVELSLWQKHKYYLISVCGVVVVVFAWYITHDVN
UniProt P21359: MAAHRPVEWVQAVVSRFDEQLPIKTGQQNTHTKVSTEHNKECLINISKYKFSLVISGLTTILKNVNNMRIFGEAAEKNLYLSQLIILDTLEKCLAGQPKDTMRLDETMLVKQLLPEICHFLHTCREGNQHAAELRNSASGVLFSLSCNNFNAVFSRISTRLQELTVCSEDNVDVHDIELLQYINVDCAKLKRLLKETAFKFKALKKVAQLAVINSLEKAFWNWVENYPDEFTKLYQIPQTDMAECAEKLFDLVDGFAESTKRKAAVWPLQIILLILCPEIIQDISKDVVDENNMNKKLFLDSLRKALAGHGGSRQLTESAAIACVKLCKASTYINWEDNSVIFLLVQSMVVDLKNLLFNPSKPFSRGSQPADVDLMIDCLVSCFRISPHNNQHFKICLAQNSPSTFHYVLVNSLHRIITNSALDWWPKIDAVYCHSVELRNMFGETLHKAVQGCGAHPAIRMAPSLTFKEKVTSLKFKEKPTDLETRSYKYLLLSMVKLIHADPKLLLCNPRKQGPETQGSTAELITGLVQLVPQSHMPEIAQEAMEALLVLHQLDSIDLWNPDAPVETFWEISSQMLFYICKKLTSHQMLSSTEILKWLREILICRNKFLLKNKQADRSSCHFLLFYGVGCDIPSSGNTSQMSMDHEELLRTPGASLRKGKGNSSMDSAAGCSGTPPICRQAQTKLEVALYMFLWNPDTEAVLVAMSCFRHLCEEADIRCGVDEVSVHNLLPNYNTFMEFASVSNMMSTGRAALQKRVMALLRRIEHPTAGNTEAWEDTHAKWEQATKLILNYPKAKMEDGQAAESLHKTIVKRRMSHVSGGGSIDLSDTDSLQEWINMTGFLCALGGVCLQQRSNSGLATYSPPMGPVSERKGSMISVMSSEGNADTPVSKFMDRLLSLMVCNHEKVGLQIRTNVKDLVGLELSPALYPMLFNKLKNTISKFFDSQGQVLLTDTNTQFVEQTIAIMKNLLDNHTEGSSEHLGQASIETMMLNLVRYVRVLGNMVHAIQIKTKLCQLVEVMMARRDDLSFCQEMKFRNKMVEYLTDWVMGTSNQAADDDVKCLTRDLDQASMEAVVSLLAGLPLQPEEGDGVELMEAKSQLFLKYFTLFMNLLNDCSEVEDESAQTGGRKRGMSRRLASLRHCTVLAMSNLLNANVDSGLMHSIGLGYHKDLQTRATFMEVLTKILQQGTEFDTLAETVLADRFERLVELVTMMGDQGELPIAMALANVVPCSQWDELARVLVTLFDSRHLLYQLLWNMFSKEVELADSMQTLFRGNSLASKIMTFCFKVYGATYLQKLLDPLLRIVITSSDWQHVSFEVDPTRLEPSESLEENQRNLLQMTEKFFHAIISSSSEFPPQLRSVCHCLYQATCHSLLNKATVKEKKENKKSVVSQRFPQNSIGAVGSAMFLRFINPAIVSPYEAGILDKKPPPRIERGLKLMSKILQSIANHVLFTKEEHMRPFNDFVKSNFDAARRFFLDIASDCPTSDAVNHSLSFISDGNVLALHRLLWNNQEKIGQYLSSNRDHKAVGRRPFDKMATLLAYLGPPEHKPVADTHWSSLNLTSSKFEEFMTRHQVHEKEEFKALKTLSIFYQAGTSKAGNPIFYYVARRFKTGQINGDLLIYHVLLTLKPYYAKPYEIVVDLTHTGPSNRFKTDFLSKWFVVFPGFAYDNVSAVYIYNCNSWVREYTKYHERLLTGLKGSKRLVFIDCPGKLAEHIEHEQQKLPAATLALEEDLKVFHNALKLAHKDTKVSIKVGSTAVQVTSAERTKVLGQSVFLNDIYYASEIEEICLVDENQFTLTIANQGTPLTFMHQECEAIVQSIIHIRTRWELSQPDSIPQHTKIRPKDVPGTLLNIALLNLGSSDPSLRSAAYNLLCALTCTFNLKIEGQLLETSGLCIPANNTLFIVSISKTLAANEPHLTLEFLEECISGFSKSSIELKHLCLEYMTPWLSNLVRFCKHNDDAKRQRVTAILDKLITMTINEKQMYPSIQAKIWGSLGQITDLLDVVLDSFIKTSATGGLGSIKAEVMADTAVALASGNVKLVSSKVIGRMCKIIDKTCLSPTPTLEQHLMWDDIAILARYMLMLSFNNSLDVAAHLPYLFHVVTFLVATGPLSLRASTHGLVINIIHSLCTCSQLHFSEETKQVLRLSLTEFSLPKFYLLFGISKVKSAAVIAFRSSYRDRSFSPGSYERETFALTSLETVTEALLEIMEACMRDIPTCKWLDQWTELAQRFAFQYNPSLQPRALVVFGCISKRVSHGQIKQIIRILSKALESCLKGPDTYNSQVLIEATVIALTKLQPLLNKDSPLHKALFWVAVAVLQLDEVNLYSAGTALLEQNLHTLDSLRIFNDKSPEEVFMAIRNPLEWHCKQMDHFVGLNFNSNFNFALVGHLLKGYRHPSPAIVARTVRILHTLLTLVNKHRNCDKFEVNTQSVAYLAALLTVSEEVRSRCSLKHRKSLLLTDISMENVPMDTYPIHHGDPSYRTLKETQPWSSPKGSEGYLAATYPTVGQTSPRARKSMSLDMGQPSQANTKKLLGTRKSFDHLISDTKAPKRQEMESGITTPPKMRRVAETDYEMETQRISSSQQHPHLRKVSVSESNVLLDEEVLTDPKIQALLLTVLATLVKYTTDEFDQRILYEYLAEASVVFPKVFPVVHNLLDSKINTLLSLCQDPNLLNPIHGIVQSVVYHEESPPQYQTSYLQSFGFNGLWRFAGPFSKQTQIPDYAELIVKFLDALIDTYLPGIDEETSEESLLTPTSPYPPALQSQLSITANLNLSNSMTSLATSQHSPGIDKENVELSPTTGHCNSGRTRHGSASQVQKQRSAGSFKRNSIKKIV
UniProt P55786: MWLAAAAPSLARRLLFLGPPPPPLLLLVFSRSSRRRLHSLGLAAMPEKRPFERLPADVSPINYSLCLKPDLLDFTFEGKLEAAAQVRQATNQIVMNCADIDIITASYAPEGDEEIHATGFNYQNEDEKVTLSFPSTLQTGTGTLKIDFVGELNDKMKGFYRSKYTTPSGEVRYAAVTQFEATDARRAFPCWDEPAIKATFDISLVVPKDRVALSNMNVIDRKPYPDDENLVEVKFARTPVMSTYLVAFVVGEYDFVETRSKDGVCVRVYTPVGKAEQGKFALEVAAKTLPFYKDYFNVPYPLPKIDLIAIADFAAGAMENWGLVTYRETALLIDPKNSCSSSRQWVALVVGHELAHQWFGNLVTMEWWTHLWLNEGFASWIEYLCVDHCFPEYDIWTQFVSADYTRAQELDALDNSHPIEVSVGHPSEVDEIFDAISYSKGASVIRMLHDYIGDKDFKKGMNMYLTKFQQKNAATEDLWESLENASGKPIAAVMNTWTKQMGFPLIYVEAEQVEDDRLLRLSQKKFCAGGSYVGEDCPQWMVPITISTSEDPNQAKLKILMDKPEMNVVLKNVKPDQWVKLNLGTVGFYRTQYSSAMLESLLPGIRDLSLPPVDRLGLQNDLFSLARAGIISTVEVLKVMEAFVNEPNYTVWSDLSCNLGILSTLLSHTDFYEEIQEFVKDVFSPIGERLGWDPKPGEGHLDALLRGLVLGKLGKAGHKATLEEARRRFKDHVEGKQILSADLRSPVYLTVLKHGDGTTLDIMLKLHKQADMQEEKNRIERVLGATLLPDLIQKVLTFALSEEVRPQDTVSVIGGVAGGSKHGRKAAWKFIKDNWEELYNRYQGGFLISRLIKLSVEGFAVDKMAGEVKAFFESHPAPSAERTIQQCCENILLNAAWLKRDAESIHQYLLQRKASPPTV
UniProt Q13952: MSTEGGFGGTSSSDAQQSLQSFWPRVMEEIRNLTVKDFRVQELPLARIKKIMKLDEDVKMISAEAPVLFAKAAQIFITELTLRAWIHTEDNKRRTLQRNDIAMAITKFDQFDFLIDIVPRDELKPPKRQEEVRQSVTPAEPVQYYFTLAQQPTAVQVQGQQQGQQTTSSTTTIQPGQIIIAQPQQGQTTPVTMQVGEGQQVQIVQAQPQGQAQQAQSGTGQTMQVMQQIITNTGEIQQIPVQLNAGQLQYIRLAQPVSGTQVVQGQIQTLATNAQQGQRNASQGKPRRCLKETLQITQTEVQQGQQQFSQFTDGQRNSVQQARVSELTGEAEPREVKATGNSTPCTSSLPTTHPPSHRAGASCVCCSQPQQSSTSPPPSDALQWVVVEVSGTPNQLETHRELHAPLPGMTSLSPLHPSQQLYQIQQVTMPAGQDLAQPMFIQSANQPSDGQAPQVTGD
UniProt O75607: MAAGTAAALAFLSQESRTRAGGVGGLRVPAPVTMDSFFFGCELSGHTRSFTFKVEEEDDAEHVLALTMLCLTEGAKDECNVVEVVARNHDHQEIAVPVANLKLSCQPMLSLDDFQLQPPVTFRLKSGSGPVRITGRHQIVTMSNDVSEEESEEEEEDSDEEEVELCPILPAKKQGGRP
UniProt O43847: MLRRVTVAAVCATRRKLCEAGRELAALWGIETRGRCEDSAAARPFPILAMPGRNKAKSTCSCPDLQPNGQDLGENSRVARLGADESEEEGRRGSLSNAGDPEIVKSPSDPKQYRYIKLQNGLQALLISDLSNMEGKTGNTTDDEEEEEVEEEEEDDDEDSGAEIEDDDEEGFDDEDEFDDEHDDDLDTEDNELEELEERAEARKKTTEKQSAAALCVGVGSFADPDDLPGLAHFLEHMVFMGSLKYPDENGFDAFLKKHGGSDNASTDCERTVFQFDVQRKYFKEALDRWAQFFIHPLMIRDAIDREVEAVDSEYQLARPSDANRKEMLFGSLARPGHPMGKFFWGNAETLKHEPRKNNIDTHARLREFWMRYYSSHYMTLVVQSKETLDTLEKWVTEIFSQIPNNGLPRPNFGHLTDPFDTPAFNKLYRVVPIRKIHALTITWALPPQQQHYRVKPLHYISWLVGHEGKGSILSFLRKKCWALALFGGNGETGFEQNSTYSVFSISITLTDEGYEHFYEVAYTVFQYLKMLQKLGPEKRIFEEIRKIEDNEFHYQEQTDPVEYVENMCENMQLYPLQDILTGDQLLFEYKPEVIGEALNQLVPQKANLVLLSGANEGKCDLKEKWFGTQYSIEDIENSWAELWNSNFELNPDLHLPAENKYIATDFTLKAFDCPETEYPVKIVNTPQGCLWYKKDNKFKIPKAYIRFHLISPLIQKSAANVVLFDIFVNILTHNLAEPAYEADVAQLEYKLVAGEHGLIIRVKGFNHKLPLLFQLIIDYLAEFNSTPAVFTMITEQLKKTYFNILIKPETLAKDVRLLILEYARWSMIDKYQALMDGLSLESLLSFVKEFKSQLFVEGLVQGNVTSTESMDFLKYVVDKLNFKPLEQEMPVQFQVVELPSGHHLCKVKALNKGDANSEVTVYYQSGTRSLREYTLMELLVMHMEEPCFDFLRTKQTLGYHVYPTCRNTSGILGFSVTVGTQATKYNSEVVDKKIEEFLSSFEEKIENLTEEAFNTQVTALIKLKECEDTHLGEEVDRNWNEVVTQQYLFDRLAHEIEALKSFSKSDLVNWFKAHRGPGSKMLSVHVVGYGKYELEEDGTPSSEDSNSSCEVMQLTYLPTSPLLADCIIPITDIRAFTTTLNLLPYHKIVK

sotrastaurin = compound: CN1CCN(c2nc(C3=C(c4c[nH]c5ccccc45)C(=O)NC3=O)c3ccccc3n2)CC1 [sotrastaurin]
Summary of the method: as §1

alvocidib = compound: CN1CC[C@H](c2c(O)cc(O)c3c(=O)cc(-c4ccccc4Cl)oc23)[C@H](O)C1 [alvocidib]
Summary of the method: as §1

Tubastatin A = compound: CN1CCc2c(c3ccccc3n2Cc2ccc(C(=O)NO)cc2)C1 [Tubastatin A]
Summary of the method: as §1

[1] = compound: CNC(=O)C1=CC=CC=C1NC2=NC(=NC=C2Cl)NC3=C(C=C(C=C3)N4CCOCC4)OC
Summary of the method: as §1

defactinib = compound: CNC(=O)c1ccc(Nc2ncc(C(F)(F)F)c(NCc3nccnc3N(C)S(C)(=O)=O)n2)cc1 [defactinib]
Summary of the method: as §1

rucaparib = compound: CNCc1ccc(-c2[nH]c3cc(F)cc4c3c2CCNC4=O)cc1 [rucaparib]
Summary of the method: as §1

[2] = compound: CNc1nc(-c2ccc3c(N)n[nH]c3c2)cc(N2C[C@@H](C(=O)NC3CCCCC3)CC[C@H]2C)n1
Summary of the method: as §1

encorafenib = compound: COC(=O)N[C@@H](C)CNc1nccc(-c2cn(C(C)C)nc2-c2cc(Cl)cc(NS(C)(=O)=O)c2F)n1 [encorafenib]
Summary of the method: as §1

[3] = compound: COC(=O)[C@H](CCSC)NC(=O)C1=C(C=C(C=C1)NC[C@H](CS)N)C2=CC=CC=C2
Summary of the method: as §1

Target	log2 fold change (saracatinib)	log2 fold change (sotrastaurin)	log2 fold change (alvocidib)	log2 fold change (Tubastatin A)	log2 fold change [1]	log2 fold change (defactinib)	log2 fold change (rucaparib)	log2 fold change [2]	log2 fold change (encorafenib)	log2 fold change [3]
NOP16 (UniProt Q9Y3C1)	inactive: -0.109	inactive: 0.198	inactive: 0.348	inactive: 0.092	inactive: -0.029	inactive: 0.424	inactive: 0.145	inactive: 0.093	inactive: 0.152	inactive: -0.042
NR2F6 (UniProt P10588)	inactive: 0.009	inactive: 0.28	inactive: -0.03	inactive: -0.008	inactive: 0.094	inactive: 0.012	inactive: -0.136	inactive: -0.068	inactive: 0.065	inactive: -0.05
NOL12 (UniProt Q9UGY1)	inactive: -0.143	inactive: -0.012	inactive: 0.38	inactive: 0.027	inactive: 0.029	inactive: 0.523	–	inactive: -0.063	–	inactive: 0
NIPSNAP2 (UniProt O75323)	inactive: -0.017	inactive: -0.082	–	inactive: -0.019	inactive: 0.104	inactive: -0.003	inactive: -0.085	inactive: -0.08	inactive: -0.028	inactive: 0.033
NHEJ1 (UniProt Q9H9Q4)	inactive: 0.048	inactive: 0.026	inactive: -0.077	inactive: -0.023	inactive: -0.036	inactive: 0.028	inactive: 0.01	inactive: 0.021	inactive: 0.032	inactive: -0.021
NFXL1 (UniProt Q6ZNB6)	inactive: 0.023	inactive: 0.011	inactive: 0.014	inactive: -0.003	inactive: 0.022	inactive: -0.04	inactive: 0.087	inactive: -0.031	inactive: 0.002	inactive: 0
NSD3 (UniProt Q9BZ95)	inactive: 0.139	inactive: -0.087	inactive: 0.011	inactive: 0.07	inactive: -0.034	inactive: 0.033	–	inactive: -0.174	–	inactive: 0.037
NOP56 (UniProt O00567)	inactive: -0.034	inactive: 0.018	–	inactive: -0.01	inactive: -0.067	inactive: 0.375	inactive: 0.233	inactive: -0.028	inactive: 0.057	inactive: 0.007
NISCH (UniProt Q9Y2I1)	inactive: -0.037	inactive: -0.066	–	inactive: -0.022	inactive: -0.141	inactive: -0.128	inactive: -0.041	inactive: -0.072	inactive: 0.093	inactive: -0.12
NF1 (UniProt P21359)	inactive: -0.124	inactive: 0.103	inactive: 0.039	inactive: 0.078	inactive: 0.003	inactive: 0.016	inactive: -0.052	inactive: -0.044	inactive: -0.205	inactive: -0.035
NME3 (UniProt Q13232)	inactive: 0.036	inactive: 0.05	inactive: 0.019	inactive: 0	inactive: -0.022	inactive: 0	inactive: -0.024	inactive: -0.072	inactive: -0.052	inactive: -0.01
NPM1 (UniProt P06748)	inactive: -0.076	inactive: -0.035	inactive: 0.179	inactive: 0.092	inactive: 0.033	inactive: 0.228	inactive: 0.402	inactive: 0.071	inactive: 0.143	inactive: -0.056
NEMP1 (UniProt O14524)	inactive: -0.001	inactive: -0.012	–	inactive: -0.002	inactive: -0.111	inactive: 0.021	inactive: 0.026	inactive: -0.045	inactive: -0.039	inactive: 0.053
NOP58 (UniProt Q9Y2X3)	inactive: -0.044	inactive: -0.008	–	inactive: 0.014	inactive: -0.058	inactive: -0.004	inactive: 0.304	inactive: -0.01	inactive: 0.106	inactive: -0.076
NSMAF (UniProt Q92636)	inactive: -0.03	inactive: 0.013	inactive: -0.063	inactive: -0.03	inactive: -0.008	inactive: -0.031	inactive: 0.178	inactive: -0.044	inactive: 0.01	inactive: -0.018
NONO (UniProt Q15233)	inactive: -0.123	inactive: -0.17	inactive: -0.047	inactive: 0.178	inactive: -0.031	inactive: -0.103	inactive: 0.169	inactive: -0.014	inactive: 0.099	inactive: -0.03
NHLRC2 (UniProt Q8NBF2)	inactive: -0.026	inactive: 0.039	–	inactive: -0.072	inactive: -0.055	inactive: -0.039	inactive: -0.016	inactive: 0.059	inactive: -0.045	inactive: 0.146
NOL4L (UniProt Q96MY1)	inactive: -0.122	inactive: -0.018	–	inactive: -0.065	inactive: -0.061	–	–	inactive: -0.288	–	–
NFATC2IP (UniProt Q8NCF5)	inactive: 0.065	inactive: -0.033	–	inactive: 0.012	inactive: 0.067	inactive: -0.122	inactive: 0	inactive: 0.005	inactive: 0.075	inactive: -0.017
NPEPPS (UniProt P55786)	inactive: -0.013	inactive: 0.108	–	inactive: 0.012	inactive: -0.082	inactive: -0.004	inactive: 0.013	inactive: 0.075	inactive: -0.032	active: 0.231
NOB1 (UniProt Q9ULX3)	inactive: -0.022	inactive: -0.092	–	inactive: 0.045	inactive: -0.047	inactive: -0.009	inactive: 0.141	inactive: 0.103	inactive: 0.007	inactive: 0
NFYC (UniProt Q13952)	inactive: 0.011	inactive: 0.012	–	inactive: -0.021	inactive: -0.022	inactive: -0.022	inactive: -0.041	inactive: -0.019	inactive: 0.005	inactive: 0.005
NELFB isoform 2 (UniProt Q8WX92)	inactive: -0.016	inactive: -0.065	–	inactive: 0.04	inactive: -0.026	inactive: -0.199	inactive: -0.034	inactive: -0.005	inactive: 0.079	inactive: -0.057
NEU1 (UniProt Q99519)	inactive: -0.044	inactive: 0	–	inactive: 0.028	inactive: -0.113	inactive: -0.011	inactive: -0.012	inactive: -0.011	inactive: -0.012	inactive: -0.019
NIPSNAP3B (UniProt Q9BS92)	inactive: 0.122	inactive: 0.066	–	inactive: 0.01	inactive: 0.112	inactive: -0.026	active: 0.31	inactive: -0.088	inactive: -0.289	inactive: 0.008
NPM3 (UniProt O75607)	inactive: 0	inactive: 0	–	inactive: 0.031	inactive: -0.06	inactive: 0.001	inactive: 0.155	inactive: -0.042	inactive: 0.034	inactive: -0.04
NMT2 (UniProt O60551)	inactive: -0.031	inactive: 0.007	–	inactive: 0.008	inactive: 0.146	inactive: -0.016	inactive: -0.04	inactive: -0.027	inactive: 0.02	inactive: 0.023
NR2C2 isoform 2 (UniProt P49116)	inactive: 0.052	inactive: -0.041	–	inactive: -0.013	inactive: 0.005	inactive: 0.001	inactive: 0.071	inactive: -0.044	inactive: 0.053	inactive: 0.028
NRDC isoform 2 (UniProt O43847)	inactive: -0.024	inactive: -0.028	–	inactive: -0.009	inactive: -0.033	inactive: -0.077	inactive: 0.092	inactive: 0.01	inactive: 0.024	inactive: -0.076
NMD3 (UniProt Q96D46)	inactive: 0.043	inactive: 0.02	–	inactive: 0.07	inactive: 0.088	inactive: 0.06	inactive: -0.181	inactive: 0.003	inactive: 0.028	inactive: -0.052

Two consecutive records out of the list so far, for reference:
Target	log2 fold change (saracatinib)	log2 fold change (sotrastaurin)	log2 fold change (alvocidib)	log2 fold change (Tubastatin A)	log2 fold change [1]	log2 fold change (defactinib)	log2 fold change (rucaparib)	log2 fold change [2]	log2 fold change (encorafenib)	log2 fold change [3]
NOL4L (UniProt Q96MY1)	inactive: -0.122	inactive: -0.018	–	inactive: -0.065	inactive: -0.061	–	–	inactive: -0.288	–	–
NFATC2IP (UniProt Q8NCF5)	inactive: 0.065	inactive: -0.033	–	inactive: 0.012	inactive: 0.067	inactive: -0.122	inactive: 0	inactive: 0.005	inactive: 0.075	inactive: -0.017

Source: the supplement of paper PMC10849652
